Results are given in words; binding and its absence hold for the method and conditions named. Some entries that bind do so weakly or less than the wild type.

Chains of the proteins cited; added tags and fusions are not shown. Lines headed by an entry give the natural chain unless they say otherwise; changes in a name come on top. A line that says so, or that is headed by a name, gives the form on record, which may keep a tag or linker.
fluorescent ISG15 (P05161, form named): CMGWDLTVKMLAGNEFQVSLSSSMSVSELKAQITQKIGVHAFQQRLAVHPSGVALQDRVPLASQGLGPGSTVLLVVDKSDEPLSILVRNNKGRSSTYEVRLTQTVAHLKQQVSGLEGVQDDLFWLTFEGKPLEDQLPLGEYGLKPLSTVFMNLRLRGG

The values below come from PMC10693564.

This assay has as its target fluorescent ISG15 (UniProt P05161). The assay can be described thus: fluorescence polarisation; both purified.

B1: non-structural protein 1 of influenza B virus (NS1B) (protein, UniProt P03502 1-281)
chain: MADNMTTTQIEVGPGATNATINFEAGILECYERFSWQRALDYPGQDRLHRLKRKLESRIKTHNKSEPENKRMSLEERKAIGVKMMKVLLFMDPSAGIEGFEPYCVKNPSTSKCPNYDWTDYPPTPGKYLDDIEEEPENVDHPIEVVLRDMNNKDARQKIKDEVNTQKEGKFRLTIKRDIRNVLSLRVLVNGTFLKHPNGDKSLSTLHRLNAYDQNGGLVAKLVATDDRTVEDEKDGHRILNSLFERFDEGHSKPIRAAETAVGVLSQFGQEHRLSPEEGDN
As to B1, the binding entry is “binds”.
